Reference: PubChem BioAssay AID1224826 (NIAID, 2016)
The whole screen tested about 17,000 reagents; below is a random part of them. In the full data, about 1,110 (6.6%) got an active call. 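Active means lowered or raised reporter signal; replicate intensities are raw and not normalised per plate.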 Entries without a mark were called inactive. The numbers tell different reagents against one gene apart. Not all columns of the deposit are shown.

Aim: 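Regulators of Tlr4 signalling leading to Tnf-alpha expression in macrophages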 (primary screen)
Cell system: RAW264.7 G9 macrophages from mouse bearing reporters for p65 (GFP) and the Tnf promoter (mCherry)
Knock-down reagent: siRNA pool against mouse genes, 100 nM
Timing: 16 h of LPS stimulation, after 2 days of siRNA transfection
Conditions: bacterial lipopolysaccharide (Salmonella minnesota R595), 10 ng/ml
Detection: 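Nuclear mCherry signal of the Tnf promoter reporter measured by imaging after background removal, scaled to each plate median and turned into robust z-scores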
Reading the numbers: Tnf reporter robust z-score: higher = stronger Tnf promoter reporter signal after LPS
Hit rule: 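Called active when robust z-score is at most -1.3, matching the median of the Tlr4 knock-down control, or over 3; control wells and wells with under 50 cells never active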
Calls: active = Tnf reporter clearly lowered or raised; inactive = no clear change in Tnf reporter

| gene | reagent no. | Tnf reporter robust z-score | fewer than 50 cells in well |
| --- | --- | --- | --- |
| Prss22 (serine protease 22) | 1 | -0.37 | enough cells in well |
| Men1 (multiple endocrine neoplasia 1) | 1 | -0.95 | enough cells in well |
| Syne4 (spectrin repeat containing, nuclear envelope family member 4) | 1 | -0.36 | enough cells in well |
| Pabpc6 (poly(A) binding protein, cytoplasmic 6) | 1 | – | fewer than 50 cells per well; well left out of calls |
| Ebf4 (early B cell factor 4) | 1 | 0.35 | enough cells in well |
| Dhx36 (DEAH-box helicase 36) | 1 | -0.65 | enough cells in well |
| Rcvrn (recoverin) | 1 | -0.17 | enough cells in well |
| N4bp2l2 (NEDD4 binding protein 2-like 2) | 1 | 1.53 | enough cells in well |
| Dhx34 (DExH-box helicase 34) | 1 | -1.04 | enough cells in well |
| Gtf2h2 (general transcription factor II H, polypeptide 2) | 1 | 0.64 | enough cells in well |
| Gbp5 (guanylate binding protein 5) | 1 | -1.01 | enough cells in well |
| Atp5mc1 (ATP synthase membrane subunit c locus 1) | 1 | 1.84 | enough cells in well |
| Mecr (mitochondrial trans-2-enoyl-CoA reductase) | 1 | -0.71 | enough cells in well |
| Ptpn2 (protein tyrosine phosphatase, non-receptor type 2) | 1 | -0.36 | enough cells in well |
| Nfil3 (nuclear factor, interleukin 3, regulated) | 1 | 0.07 | enough cells in well |
| Tkfc (triokinase, FMN cyclase) | 1 | 0.01 | enough cells in well |
| Kifc5b (kinesin family member C5B) | 1 | -0.11 | enough cells in well |
| Kifc5b (kinesin family member C5B) | 2 | 0.23 | enough cells in well |
| Crx (cone-rod homeobox) | 1 | 0.09 | enough cells in well |
| Dek (DEK proto-oncogene) | 1 | 0.32 | enough cells in well |
| Spag17os (sperm associated antigen 17, opposite strand) | 1 | 1.98 | enough cells in well |
| Acox3 (acyl-Coenzyme A oxidase 3, pristanoyl) | 1 | 0.96 | enough cells in well |
| Rdh19 (retinol dehydrogenase 19) | 1 | -0.43 | enough cells in well |
| Pole4 (polymerase (DNA-directed), epsilon 4 (p12 subunit)) | 1 | -0.79 | enough cells in well |
| Aqp9 (aquaporin 9) | 1 | 0.04 | enough cells in well |
| Or8k25 (olfactory receptor family 8 subfamily K member 25) | 1 | 0.02 | enough cells in well |
| Or8k25 (olfactory receptor family 8 subfamily K member 25) | 2 | 2.3 | enough cells in well |
| Adpgk (ADP-dependent glucokinase) | 1 | – | fewer than 50 cells per well; well left out of calls |
| Apol8 (apolipoprotein L 8) | 1 | -2.05 (active) | enough cells in well |
| Otoa (otoancorin) | 1 | 0.99 | enough cells in well |
| Or8g17 (olfactory receptor family 8 subfamily G member 17) | 1 | -0.88 | enough cells in well |
| Slc16a4 | 1 | 1.92 | enough cells in well |
| Olfr899 (olfactory receptor 899) | 1 | 0.73 | enough cells in well |
| Tax1bp3 (Tax1 (human T cell leukemia virus type I) binding protein 3) | 1 | 0.83 | enough cells in well |
| Tspan2 (tetraspanin 2) | 1 | 1.65 | enough cells in well |
| Vxn (vexin) | 1 | 2.59 | enough cells in well |
| Prpsap2 (phosphoribosyl pyrophosphate synthetase-associated protein 2) | 1 | 1.86 | enough cells in well |
| Ihh (Indian hedgehog) | 1 | -0.58 | enough cells in well |
| Nepn (nephrocan) | 1 | 1.12 | enough cells in well |
| Ddx50 (DExD box helicase 50) | 1 | 2.38 | enough cells in well |
| Or2ak7 (olfactory receptor family 2 subfamily AK member 7) | 1 | -0.82 | enough cells in well |
| Sdk1 (sidekick cell adhesion molecule 1) | 1 | -1.46 (active) | enough cells in well |
| Nrm (nurim (nuclear envelope membrane protein)) | 1 | 0.28 | enough cells in well |
| Spast (spastin) | 1 | -0.18 | enough cells in well |
| Fcgbpl1 (Fc fragment of IgG binding protein like 1) | 1 | -0.79 | enough cells in well |
| Ptp4a2 (protein tyrosine phosphatase 4a2) | 1 | 0.04 | enough cells in well |
| Atp11a (ATPase, class VI, type 11A) | 1 | -0.77 | enough cells in well |
| Dsc3 (desmocollin 3) | 1 | -0.82 | enough cells in well |
| Eif1a (eukaryotic translation initiation factor 1A) | 1 | 0.67 | enough cells in well |
| Abca3 (ATP-binding cassette, sub-family A member 3) | 1 | 1.44 | enough cells in well |
| Or6f1 (olfactory receptor family 6 subfamily F member 1) | 1 | -1.34 (active) | enough cells in well |
| Plxnc1 (plexin C1) | 1 | -0.77 | enough cells in well |
| Ube2q1 (ubiquitin-conjugating enzyme E2Q family member 1) | 1 | -1.04 | enough cells in well |
| Opn1sw | 1 | 1.54 | enough cells in well |
| Tekt1 (tektin 1) | 1 | – | fewer than 50 cells per well; well left out of calls |
| Or52r1b (olfactory receptor family 52 subfamily R member 1B) | 1 | – | fewer than 50 cells per well; well left out of calls |
| Trim16 (tripartite motif-containing 16) | 1 | -0.47 | enough cells in well |
| Cybc1 (cytochrome b 245 chaperone 1) | 1 | 0.21 | enough cells in well |
| Atxn1 (ataxin 1) | 1 | -0.14 | enough cells in well |
| D830024N08Rik (RIKEN cDNA D830024N08 gene) | 1 | 0.28 | enough cells in well |
| Sdha | 1 | 0.05 | enough cells in well |
| Tmc5 (transmembrane channel-like gene family 5) | 1 | – | fewer than 50 cells per well; well left out of calls |
| Hecw1 | 1 | 0.04 | enough cells in well |
| Or2q1 (olfactory receptor family 2 subfamily Q member 1) | 1 | – | fewer than 50 cells per well; well left out of calls |
| Asprv1 (aspartic peptidase, retroviral-like 1) | 1 | – | fewer than 50 cells per well; well left out of calls |
| 1700123O20Rik (RIKEN cDNA 1700123O20 gene) | 1 | -0.16 | enough cells in well |
| Lrig3 (leucine-rich repeats and immunoglobulin-like domains 3) | 1 | 0.54 | enough cells in well |
| Letm2 (leucine zipper-EF-hand containing transmembrane protein 2) | 1 | 0.06 | enough cells in well |
| Zfp512 (zinc finger protein 512) | 1 | -0.8 | enough cells in well |
| Psmd7 (proteasome (prosome, macropain) 26S subunit, non-ATPase, 7) | 1 | 0.66 | enough cells in well |
| Prss35 (serine protease 35) | 1 | -0.74 | enough cells in well |
| Galnt11 (polypeptide N-acetylgalactosaminyltransferase 11) | 1 | 1.06 | enough cells in well |
| Ifnk (interferon kappa) | 1 | -0.67 | enough cells in well |
| Atp1b1 (ATPase, Na+/K+ transporting, beta 1 polypeptide) | 1 | -0.97 | enough cells in well |
| Syt13 (synaptotagmin XIII) | 1 | 2.79 | enough cells in well |
